Data published in publication PMC11077377.
Results are given in words; binding and its absence hold for the method and conditions named. In cells and extracts the contact can be indirect. A yes stands for co-enrichment or nearness to the bait. Other partners may have been found.

Protein sequences, listed by entry. Tags and fused reporters are not part of them. Residues count along the entry.
UniProt Q16610, residues 20-540: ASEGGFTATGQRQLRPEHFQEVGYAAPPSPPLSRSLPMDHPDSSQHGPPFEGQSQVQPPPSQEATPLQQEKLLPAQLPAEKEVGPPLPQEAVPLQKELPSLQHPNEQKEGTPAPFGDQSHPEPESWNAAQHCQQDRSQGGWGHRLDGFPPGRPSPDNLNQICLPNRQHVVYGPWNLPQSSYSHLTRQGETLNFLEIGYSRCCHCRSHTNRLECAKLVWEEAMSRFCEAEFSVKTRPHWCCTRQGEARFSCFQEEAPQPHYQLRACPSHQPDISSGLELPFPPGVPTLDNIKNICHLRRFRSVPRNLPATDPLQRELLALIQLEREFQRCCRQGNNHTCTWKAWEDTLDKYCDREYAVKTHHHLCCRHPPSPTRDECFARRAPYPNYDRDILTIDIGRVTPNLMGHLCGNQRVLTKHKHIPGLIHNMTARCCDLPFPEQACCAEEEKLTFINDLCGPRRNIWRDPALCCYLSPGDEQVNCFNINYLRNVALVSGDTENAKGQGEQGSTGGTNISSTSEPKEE
UniProt P35968, residues 20-1356: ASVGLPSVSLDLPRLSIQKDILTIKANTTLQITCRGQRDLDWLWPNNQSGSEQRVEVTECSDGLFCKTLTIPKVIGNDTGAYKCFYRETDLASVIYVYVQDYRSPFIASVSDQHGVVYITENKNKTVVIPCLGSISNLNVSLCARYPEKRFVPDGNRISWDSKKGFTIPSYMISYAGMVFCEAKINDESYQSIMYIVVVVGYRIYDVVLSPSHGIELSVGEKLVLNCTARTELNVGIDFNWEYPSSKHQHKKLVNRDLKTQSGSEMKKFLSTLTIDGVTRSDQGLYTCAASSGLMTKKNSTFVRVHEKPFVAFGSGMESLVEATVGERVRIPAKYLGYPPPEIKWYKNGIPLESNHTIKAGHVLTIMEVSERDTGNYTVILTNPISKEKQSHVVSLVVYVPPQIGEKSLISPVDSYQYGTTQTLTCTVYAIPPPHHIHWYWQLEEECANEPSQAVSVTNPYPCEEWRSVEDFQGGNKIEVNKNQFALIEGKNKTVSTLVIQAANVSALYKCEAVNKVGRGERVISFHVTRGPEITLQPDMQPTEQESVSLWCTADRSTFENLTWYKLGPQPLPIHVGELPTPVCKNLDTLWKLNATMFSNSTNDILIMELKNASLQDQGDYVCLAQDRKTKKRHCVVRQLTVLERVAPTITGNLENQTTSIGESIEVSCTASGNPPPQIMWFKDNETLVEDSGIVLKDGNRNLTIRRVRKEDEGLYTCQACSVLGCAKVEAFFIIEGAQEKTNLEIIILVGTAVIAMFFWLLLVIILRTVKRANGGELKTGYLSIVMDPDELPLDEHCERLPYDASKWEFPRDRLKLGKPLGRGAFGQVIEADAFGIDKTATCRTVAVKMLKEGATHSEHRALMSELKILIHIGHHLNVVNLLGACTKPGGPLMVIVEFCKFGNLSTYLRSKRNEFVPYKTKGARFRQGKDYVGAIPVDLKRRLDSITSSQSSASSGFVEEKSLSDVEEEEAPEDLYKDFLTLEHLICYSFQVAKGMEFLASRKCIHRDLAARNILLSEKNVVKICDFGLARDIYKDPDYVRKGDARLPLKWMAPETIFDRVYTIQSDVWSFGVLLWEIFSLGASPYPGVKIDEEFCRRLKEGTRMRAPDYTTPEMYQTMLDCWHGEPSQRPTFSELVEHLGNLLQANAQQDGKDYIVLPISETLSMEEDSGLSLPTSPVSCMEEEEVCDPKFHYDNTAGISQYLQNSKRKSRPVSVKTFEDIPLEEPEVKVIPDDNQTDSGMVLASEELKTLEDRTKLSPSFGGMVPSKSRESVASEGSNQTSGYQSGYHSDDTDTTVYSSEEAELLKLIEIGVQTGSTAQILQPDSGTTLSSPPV

Target: extracellular matrix protein 1 (ECM1) (human) (UniProt Q16610)
Assay: affinity purification with mass spectrometry; IP of ECM1 from RIPA cell lysate on protein A/G beads; SDS-PAGE, silver staining, stained band excised and sent for mass spectrometry

Question: Which binding does the source give for “vascular endothelial growth factor receptor 2 (VEGFR2) (from UniProt P35968 20-1356)” here?
Answer: Its binding is “binds”.
